{"sequences": {"note": "By UniProt entry, the sequences of proteins in these tests, tags left out. Where a name states a change or a piece, a line headed by the entry shows the natural chain unless it says otherwise.", "UniProt P61604": "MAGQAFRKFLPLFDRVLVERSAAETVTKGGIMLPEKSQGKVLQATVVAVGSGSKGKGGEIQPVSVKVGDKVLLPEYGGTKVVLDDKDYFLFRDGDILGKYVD", "UniProt P20851": "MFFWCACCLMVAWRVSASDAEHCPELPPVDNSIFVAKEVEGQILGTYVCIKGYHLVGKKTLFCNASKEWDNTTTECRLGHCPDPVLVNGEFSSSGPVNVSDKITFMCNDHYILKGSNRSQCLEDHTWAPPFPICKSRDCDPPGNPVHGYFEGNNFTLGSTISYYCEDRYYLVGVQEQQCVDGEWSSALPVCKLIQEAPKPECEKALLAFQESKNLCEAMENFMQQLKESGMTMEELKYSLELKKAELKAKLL"}, "source": "patent US20220204643A1", "binders": {"B1": {"name": "TUVM1001 (antibody, V domains shown)", "VH": "SVQLVESGGGVVQPGRSLRLSCAASGFTFSDYGMHWVRQAPGKGLEWVAVIWYDGSNEYYADSVKGRFTISRDNSKNTVYLQMNSLGAEDTAVYYCARDDVPRGYDYWGQGTLVTVSS", "VL": "VIQMTQSPSSLSASVGDRVTIACRASQGIRNDLGWYQQKPGRAPKLLIYAASTLQSGVPSRFSGSGSGTDFTLTIYSLQPEDFATYYCLQNYNYPWTFGQGTKVEIQG"}, "B2": {"name": "TBRE1049 (antibody, V domains shown)", "VH": "PVQLVQSGAEVKKPGESLKISCKGSGYSFTTYWIGWVRQMPGKGLEWMGIIYPGDSDTRYSPSFQGQVTISADKSISTAYLQWNSLKASDTAMYYCAMDNSGSGGVDYWGQGTLVTVSS", "VL": "LYELTQPPSVSVSPGQTARITCSGDALPKKYAYWYQQKSGQAPVLVIYEDSKRPSGIPERFSGSSSGTMATLTISGAQVEDEADYYCYSTDSSGNHGVFGGGTKLTVLG"}, "B3": {"name": "TCER1005 (antibody, V domains shown)", "VH": "AVQLVQSGAEVKKPGESLKISCRGSGYNFISHWISWVRQMPGKGLEWQWLGRIDPSDSYTNYSPSFRGHVTISVDKSVNTAYLQWNSLKASDTAMYYCARLSRDGYTIEHFDYWGQGTLVTVSS", "VL": "EIVLTQSPGTLSLSPGERATLSCRASQSVSSSYLAWYQQKPGQAPRLLIYDASSRAAGVPDRFSGSGSGTDFTLTISRLEPEDFAVYFCQQYDSSPPMYTFGQGTKLEIRR"}, "B4": {"name": "TCER1007 (antibody, V domains shown)", "VH": "PVQLQESGPGLVKPSETLSLTCTVSGGSIDSYYWSWLRQPPGRGLEWIGYIFYSGITNYSPSLKSRVTISVDTSKNQFSLKLNSVTAADTAVYYCARELPVIGRRTFDIWGQGTMVTVSS", "VL": "DIQMTQSPSSLSASVGDRVTITCRASQTISTYLNWYQQKPGKAPKLLIYAASSLQSGVPSRFSGSGSETDFTLTISSLQPEDFATYYCQQSYNARTFGQGTKVEIKR"}, "B5": {"name": "TCOL1002 (antibody, V domains shown)", "VH": "QVHLVQSGAEVKRPGASVKVSCKGSGYTLNNDVAFSWVRQAPGQGPEWLGWINAYQGVTNISPNFRARVTMTTDTSTNTIYMDLQNLRSDDTAIYYCARDRQGLGRMDVWGQGTTVIVSS", "VL": "DIQMTQSPSSLSASLGDRITITCRATQSISNYLNWYQQKSGKVPELLIYAASHLQSGVPSRFSGTGSGTDFSLTISGLQPEDFATYYCQQTYTTPRTFGRGTTVEIRR"}, "B6": {"name": "TCOL1005 (antibody, V domains shown)", "VH": "QVRLVESGGGLVQPGGFLRLSCAASGFTFSDYEMNWVRQAPGKGLEWISHIGSSGTYADSVKGRFTISRDNAKNSLYLQMSSLRAEDAGVYYCATTRNSAFLNWGQGTLVTVSS", "VL": "EIVLTQSPATLSLSPGEGATLSCRASQSVSGYLAWYQQKPGQAPRLLIYDASNRATGIPARFSGSGSGTDFTLTISSLEPEDFAVYYCQQRSKWPLTFGGGTQVEIKR"}, "B7": {"name": "TESO1005 (antibody, V domains shown)", "VH": "PVQLQESGPGLVKPSQTLSLTCTVSGGSITSGSYFWSWIRQPAGEGLEWIGRIYTSGSTNYNPSLKSRVTISADTSKNHFSLELSSVTAADTAMYFCARERFGQGALDYWGQGTLVTVSS", "VL": "DIQMTQSPSTLSASVGDRVTITCRASQSISGWLAWYQQKPGKAPQLLIYLVSSLESGVPSRFSGSGSGTEFTLTISSLQPDDFATYYCQHYDSYIGTFGQGTKVEIKR"}, "B8": {"name": "THNS1002 (antibody, V domains shown)", "VH": "EGQLLESGGGLVQPGGSLRLSCEASGFTFSFSSYAMSWVRQAPGRGLEWVSVTGGSGYTKYYADSVKGRFTVSRDNSKNTLYLQMNSLRAEDTALYYCARRSTSSPSFSTLDVWGRGATVIVSS", "VL": "QSALTQPASVSGSPGQSITISCTGTSSDVGGFNYVSWYQQHPGKAPKLLIYDVSERPSGVSSRFSGSKSGNTASLTISGLQAEDEADYYCSSYTSSTTVLFGGGTKLTVLG"}, "B9": {"name": "TCOL1009 (antibody, V domains shown)", "VH": "PVQLVQSGAEVKKPGASVKVSCKASGDTFPNYVISWVRQAPGQGLEWVGCINTNNGKTNYVQKLQGRVILTTDTSTNTANMELRSLRFDDTAVYYCARERGQVRSYGMDVWGQGTAVTVSS", "VL": "PYELTQPPSVSVSPGQTANITCSGDKLGDICVCWYQQKPGQSPVLVIYQHNKRPSGIPERFSGSNSGNTATLTISATQATDEAIYYCQSWDSSSVLFGGGTKLTVLG"}}, "key": {"[1]": {"molecular_target": "T1, RP2 activator of ARL3 GTPase (human) (UniProt O75695)", "T1 sequence": "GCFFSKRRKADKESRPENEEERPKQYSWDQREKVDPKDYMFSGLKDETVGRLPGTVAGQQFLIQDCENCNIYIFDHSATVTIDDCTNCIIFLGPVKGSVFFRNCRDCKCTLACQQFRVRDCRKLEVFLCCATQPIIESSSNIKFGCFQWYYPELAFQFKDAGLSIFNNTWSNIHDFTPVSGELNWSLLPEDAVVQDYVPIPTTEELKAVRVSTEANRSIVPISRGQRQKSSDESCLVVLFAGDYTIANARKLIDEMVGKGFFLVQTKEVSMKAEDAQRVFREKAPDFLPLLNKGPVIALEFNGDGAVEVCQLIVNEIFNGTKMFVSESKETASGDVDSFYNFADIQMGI"}, "[2]": {"molecular_target": "T1, RP2 activator of ARL3 GTPase (human)", "experiment": "protein array"}, "[3]": {"molecular_target": "heat shock protein family E (Hsp10) member 1 (human) (UniProt P61604)", "experiment": "protein array"}, "[4]": {"molecular_target": "heat shock protein family E (Hsp10) member 1 (human) (UniProt P61604)"}, "[5]": {"molecular_target": "T2, disheveled segment polarity protein 3 (human) (UniProt Q92997)", "T2 sequence": "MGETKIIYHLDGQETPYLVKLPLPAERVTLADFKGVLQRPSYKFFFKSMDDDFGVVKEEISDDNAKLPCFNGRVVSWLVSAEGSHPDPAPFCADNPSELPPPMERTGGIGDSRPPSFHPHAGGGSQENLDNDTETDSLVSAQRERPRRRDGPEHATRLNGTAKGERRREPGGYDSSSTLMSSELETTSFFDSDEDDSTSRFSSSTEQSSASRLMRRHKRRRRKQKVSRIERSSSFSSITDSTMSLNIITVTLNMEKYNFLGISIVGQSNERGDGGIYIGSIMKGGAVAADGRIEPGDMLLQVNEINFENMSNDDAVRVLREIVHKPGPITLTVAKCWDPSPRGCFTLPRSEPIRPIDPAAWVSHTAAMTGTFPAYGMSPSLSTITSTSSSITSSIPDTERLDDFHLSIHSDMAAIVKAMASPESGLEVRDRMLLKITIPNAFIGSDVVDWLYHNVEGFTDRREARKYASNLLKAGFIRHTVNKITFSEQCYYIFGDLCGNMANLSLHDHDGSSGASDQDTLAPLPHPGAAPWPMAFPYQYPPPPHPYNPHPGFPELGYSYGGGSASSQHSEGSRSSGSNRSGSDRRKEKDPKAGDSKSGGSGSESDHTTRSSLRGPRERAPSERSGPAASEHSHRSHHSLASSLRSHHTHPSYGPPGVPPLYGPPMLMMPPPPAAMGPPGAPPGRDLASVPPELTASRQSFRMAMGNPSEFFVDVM", "experiment": "protein array"}, "[6]": {"molecular_target": "T3, Zinc finger protein 260 (human) (UniProt Q3ZCT1)", "T3 sequence": "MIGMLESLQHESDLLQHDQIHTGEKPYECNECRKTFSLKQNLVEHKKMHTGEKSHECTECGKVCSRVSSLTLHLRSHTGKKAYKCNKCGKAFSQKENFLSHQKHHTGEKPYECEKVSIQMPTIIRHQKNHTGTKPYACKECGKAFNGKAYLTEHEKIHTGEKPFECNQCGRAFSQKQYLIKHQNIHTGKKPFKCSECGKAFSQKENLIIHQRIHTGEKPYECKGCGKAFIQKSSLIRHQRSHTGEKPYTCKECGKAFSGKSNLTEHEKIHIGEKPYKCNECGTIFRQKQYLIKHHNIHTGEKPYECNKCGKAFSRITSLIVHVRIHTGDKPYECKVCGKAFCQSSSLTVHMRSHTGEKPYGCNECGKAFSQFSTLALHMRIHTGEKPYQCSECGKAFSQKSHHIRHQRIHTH", "experiment": "protein array"}, "[7]": {"molecular_target": "T4, dishevelled segment polarity protein 3 (human) (UniProt Q92997)", "T4 sequence": "T2 sequence"}, "[8]": {"molecular_target": "T3, Zinc finger protein 260 (human)"}, "[9]": {"molecular_target": "T5, thioesterase superfamily member 6, transcript variant 1 (human) (UniProt Q8WUY1)", "T5 sequence": "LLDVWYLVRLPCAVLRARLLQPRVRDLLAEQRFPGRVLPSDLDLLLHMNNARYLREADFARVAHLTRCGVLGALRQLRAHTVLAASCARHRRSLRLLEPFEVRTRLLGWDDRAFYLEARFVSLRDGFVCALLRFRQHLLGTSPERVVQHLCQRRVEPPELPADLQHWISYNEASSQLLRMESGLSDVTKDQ", "experiment": "protein array"}, "[10]": {"molecular_target": "T5, thioesterase superfamily member 6, transcript variant 1 (human)"}, "[11]": {"molecular_target": "T6, protein phosphatase 1 regulatory subunit 27 (human) (UniProt Q86WC6)", "T6 sequence": "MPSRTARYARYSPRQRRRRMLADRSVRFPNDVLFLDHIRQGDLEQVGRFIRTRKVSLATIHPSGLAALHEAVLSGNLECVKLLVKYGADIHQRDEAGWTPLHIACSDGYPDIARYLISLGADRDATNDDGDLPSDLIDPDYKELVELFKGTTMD", "experiment": "protein array"}, "[12]": {"molecular_target": "T6, protein phosphatase 1 regulatory subunit 27 (human)"}, "[13]": {"substrate": "T7, C-C motif chemokine ligand 18 (human) (UniProt P55774)", "T7 sequence": "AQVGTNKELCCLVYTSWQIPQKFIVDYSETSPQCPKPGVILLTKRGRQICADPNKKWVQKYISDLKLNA"}, "[14]": {"substrate": "T7, ", "experiment": "protein array"}, "[15]": {"molecular_target": "spermatogenesis associated 33, transcript variant 2 (human) (UniProt Q96N06)", "experiment": "protein array, with experimental replicate"}, "[16]": {"molecular_target": "spermatogenesis associated 33, transcript variant 2 (human) (UniProt Q96N06)"}, "[17]": {"molecular_target": "Complement component 4 binding protein beta (human) (UniProt P20851)", "experiment": "protein array"}, "[18]": {"molecular_target": "Complement component 4 binding protein beta (human) (UniProt P20851)"}, "[19]": {"molecular_target": "T8, LIM homeobox 5 (human) (UniProt Q9H2C1)", "T8 sequence": "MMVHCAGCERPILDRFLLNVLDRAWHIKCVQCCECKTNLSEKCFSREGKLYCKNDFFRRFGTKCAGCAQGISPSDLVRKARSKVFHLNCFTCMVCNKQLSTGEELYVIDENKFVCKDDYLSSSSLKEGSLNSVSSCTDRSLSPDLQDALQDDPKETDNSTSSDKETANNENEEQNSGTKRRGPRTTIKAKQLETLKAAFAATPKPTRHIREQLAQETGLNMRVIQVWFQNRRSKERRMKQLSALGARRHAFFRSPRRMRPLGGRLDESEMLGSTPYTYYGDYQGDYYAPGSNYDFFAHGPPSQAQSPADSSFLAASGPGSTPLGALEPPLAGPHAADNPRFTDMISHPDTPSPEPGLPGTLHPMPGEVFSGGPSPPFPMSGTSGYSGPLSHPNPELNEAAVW", "experiment": "protein array"}}, "note": "Where two headings read alike, the source gives them in different places. Results are given in words; binding and its absence hold for the method and conditions named. Some entries that bind do so weakly or less than the wild type.", "data": [{"binder": "B1", "values": [{"measurement": "binding", "setting": "[1]", "result": "binds"}, {"measurement": "binding", "setting": "[2]", "result": "binds"}]}, {"binder": "B2", "values": [{"measurement": "binding", "setting": "[3]", "result": "binds"}, {"measurement": "binding", "setting": "[4]", "result": "binds"}]}, {"binder": "B3", "values": [{"measurement": "binding", "setting": "[5]", "result": "binds"}, {"measurement": "binding", "setting": "[6]", "result": "binds"}, {"measurement": "binding", "setting": "[7]", "result": "binds"}, {"measurement": "binding", "setting": "[8]", "result": "binds"}]}, {"binder": "B4", "values": [{"measurement": "binding", "setting": "[9]", "result": "binds"}, {"measurement": "binding", "setting": "[10]", "result": "binds"}]}, {"binder": "B5", "values": [{"measurement": "binding", "setting": "[11]", "result": "binds"}, {"measurement": "binding", "setting": "[12]", "result": "binds"}]}, {"binder": "B6", "values": [{"measurement": "binding", "setting": "[13]", "result": "binds"}, {"measurement": "binding", "setting": "[14]", "result": "binds"}]}, {"binder": "B7", "values": [{"measurement": "binding", "setting": "[15]", "result": "binds"}, {"measurement": "binding", "setting": "[16]", "result": "binds"}]}, {"binder": "B8", "values": [{"measurement": "binding", "setting": "[17]", "result": "binds"}, {"measurement": "binding", "setting": "[18]", "result": "binds"}]}, {"binder": "B9", "values": [{"measurement": "binding", "setting": "[19]", "result": "binds"}]}]}
